Results as given in paper doi:10.1101/2022.09.16.508001.
No constants are given. Whether binding was seen depends on the method and setting. Binding seen in cells or lysates may run through a third protein. Some entries that bind do so weakly or less than the wild type. For some assays here: Where a sequence is shown, tags or fusion partners need not be part of it.

Sequences of proteins named here, by UniProt entry; tags and fusion partners are left off.
UniProt P05804: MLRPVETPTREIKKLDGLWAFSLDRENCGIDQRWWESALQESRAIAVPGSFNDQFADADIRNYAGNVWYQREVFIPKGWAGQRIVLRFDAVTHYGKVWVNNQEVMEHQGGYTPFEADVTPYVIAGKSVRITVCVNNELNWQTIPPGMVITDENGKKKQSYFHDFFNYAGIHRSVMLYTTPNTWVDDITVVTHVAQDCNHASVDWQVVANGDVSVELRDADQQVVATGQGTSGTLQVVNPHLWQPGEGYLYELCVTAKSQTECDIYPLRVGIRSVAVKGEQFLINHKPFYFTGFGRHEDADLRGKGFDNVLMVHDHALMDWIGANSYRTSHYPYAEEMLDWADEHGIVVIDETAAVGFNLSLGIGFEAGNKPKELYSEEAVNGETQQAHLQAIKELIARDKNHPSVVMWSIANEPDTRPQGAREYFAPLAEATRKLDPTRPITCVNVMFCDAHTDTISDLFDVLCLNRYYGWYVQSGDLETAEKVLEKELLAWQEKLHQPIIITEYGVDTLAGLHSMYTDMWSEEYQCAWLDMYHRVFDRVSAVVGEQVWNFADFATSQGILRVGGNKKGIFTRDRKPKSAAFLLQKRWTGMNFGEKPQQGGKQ
UniProt Q9LN63: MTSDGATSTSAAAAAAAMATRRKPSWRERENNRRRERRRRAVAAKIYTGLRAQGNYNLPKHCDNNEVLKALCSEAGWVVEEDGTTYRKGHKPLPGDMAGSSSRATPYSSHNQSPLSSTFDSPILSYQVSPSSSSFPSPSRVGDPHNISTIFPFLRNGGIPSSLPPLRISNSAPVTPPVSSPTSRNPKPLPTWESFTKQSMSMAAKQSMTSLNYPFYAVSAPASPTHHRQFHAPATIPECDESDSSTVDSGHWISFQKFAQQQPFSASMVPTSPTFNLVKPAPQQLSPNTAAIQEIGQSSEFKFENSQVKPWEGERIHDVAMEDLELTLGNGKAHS

Assays:
FLAG-GTL1 (Arabidopsis) = target: T1, FLAG-GTL1 (Arabidopsis) (UniProt Q9C882); experiment: co-IP
T1 sequence: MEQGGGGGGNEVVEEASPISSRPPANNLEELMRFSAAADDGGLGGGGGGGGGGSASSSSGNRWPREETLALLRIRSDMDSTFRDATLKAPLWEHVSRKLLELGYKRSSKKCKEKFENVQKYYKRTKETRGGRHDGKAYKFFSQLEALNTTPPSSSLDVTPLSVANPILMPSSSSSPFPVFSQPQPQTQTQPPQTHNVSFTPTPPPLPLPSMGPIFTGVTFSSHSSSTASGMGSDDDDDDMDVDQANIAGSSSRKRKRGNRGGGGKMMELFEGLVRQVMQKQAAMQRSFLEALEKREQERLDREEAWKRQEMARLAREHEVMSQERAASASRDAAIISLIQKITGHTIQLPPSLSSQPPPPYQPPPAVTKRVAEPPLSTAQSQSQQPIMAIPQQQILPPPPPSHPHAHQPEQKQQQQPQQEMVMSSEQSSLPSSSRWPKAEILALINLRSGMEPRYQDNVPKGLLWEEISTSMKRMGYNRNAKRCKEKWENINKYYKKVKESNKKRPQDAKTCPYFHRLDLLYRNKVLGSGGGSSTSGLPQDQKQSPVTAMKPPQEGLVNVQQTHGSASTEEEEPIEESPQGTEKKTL

FLAG-GUS = FLAG-GUS (UniProt P05804); experiment: co-IP

## BES1-GFP (from UniProt Q9LN63 1-335)
FLAG-GTL1 (Arabidopsis)
  binding: binds
FLAG-GUS
  binding: no binding
